Experimental data: article PMC5446187, “USP9X counteracts differential ubiquitination of NPHP5 by MARCH7 and BBS11 to regulate ciliogenesis” (PLoS Genetics, 2017)

By UniProt entry, the sequences of proteins in these tests, tags left out.
UniProt Q93008: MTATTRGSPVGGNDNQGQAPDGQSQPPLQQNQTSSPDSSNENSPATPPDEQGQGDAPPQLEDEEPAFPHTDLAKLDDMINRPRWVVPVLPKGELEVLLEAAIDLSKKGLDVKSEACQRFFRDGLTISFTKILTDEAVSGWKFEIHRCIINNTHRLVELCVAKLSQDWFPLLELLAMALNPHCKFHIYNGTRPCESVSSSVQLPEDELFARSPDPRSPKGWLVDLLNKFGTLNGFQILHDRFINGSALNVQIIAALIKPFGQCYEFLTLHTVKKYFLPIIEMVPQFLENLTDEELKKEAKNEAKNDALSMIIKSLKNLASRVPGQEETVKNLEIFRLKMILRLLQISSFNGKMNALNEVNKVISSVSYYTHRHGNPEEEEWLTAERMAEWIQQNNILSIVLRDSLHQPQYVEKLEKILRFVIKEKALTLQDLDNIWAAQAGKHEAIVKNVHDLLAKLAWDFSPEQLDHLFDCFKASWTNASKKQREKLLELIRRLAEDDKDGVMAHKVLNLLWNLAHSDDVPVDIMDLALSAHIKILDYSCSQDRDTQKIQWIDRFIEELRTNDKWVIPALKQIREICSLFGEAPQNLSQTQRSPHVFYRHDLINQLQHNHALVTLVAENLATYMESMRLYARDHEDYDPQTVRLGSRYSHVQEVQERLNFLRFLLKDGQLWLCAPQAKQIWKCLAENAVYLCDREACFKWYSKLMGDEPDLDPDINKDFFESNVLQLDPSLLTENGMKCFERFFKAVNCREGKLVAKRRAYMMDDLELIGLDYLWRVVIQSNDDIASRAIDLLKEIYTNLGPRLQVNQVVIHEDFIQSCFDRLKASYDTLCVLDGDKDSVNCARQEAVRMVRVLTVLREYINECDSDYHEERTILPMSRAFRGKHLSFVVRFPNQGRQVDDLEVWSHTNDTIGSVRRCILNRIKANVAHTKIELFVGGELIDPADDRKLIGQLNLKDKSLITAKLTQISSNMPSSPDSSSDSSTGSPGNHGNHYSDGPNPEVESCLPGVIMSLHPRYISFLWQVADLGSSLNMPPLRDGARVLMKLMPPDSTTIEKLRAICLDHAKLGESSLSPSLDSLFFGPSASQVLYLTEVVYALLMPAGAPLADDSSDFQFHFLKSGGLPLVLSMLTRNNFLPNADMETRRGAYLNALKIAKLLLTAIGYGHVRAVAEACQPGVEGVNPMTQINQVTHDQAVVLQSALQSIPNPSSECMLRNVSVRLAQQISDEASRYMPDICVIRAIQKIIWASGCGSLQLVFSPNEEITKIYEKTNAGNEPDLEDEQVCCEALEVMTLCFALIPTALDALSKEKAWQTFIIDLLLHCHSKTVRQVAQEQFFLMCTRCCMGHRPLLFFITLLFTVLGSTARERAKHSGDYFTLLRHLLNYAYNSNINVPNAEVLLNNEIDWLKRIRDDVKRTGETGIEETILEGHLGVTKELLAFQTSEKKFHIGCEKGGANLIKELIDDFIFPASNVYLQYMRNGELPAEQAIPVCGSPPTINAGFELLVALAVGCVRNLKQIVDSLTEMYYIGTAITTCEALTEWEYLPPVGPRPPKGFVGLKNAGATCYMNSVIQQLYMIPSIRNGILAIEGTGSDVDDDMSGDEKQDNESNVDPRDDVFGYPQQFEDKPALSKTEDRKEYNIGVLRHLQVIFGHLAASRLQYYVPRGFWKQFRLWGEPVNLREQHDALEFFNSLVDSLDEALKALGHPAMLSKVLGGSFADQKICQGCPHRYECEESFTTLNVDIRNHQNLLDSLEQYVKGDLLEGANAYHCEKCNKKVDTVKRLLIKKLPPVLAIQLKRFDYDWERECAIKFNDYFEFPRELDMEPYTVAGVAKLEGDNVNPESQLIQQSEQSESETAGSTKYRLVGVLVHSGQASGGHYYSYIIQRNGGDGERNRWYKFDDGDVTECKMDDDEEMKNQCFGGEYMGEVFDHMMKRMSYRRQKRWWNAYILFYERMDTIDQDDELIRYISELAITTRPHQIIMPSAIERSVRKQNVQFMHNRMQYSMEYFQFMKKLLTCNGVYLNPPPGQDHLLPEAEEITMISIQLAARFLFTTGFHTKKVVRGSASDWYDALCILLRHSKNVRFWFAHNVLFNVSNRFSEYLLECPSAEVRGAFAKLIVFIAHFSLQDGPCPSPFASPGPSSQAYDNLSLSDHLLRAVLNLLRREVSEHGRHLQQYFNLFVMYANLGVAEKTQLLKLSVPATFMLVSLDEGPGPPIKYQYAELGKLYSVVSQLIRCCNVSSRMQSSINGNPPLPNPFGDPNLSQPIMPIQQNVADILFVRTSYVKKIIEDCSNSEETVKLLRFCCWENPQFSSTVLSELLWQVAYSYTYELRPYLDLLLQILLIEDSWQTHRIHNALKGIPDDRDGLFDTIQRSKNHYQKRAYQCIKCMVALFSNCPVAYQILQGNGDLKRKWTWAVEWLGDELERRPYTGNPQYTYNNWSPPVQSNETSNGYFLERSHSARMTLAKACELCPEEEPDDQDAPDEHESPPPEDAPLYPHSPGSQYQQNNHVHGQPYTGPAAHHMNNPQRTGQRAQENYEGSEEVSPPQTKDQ

Target: T1, Flag-NPHP5 (nephrocystin-5), full length 1-598 (UniProt Q15051)
T1 sequence: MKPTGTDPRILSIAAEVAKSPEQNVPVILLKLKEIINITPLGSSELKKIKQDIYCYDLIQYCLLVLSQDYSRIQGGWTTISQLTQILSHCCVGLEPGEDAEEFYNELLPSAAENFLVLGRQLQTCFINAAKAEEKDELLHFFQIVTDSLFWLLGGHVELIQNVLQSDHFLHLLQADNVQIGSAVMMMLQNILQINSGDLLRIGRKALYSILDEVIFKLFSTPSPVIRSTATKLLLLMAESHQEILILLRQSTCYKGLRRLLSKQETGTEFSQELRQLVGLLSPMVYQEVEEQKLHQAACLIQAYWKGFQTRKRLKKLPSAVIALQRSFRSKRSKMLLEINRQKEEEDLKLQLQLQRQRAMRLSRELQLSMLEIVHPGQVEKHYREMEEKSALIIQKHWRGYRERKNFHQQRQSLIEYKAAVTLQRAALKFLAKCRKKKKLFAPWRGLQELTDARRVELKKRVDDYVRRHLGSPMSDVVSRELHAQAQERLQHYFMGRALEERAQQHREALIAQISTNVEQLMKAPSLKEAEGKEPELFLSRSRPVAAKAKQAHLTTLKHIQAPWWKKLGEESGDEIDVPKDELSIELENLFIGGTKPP
Assay: affinity purification with mass spectrometry; Flag-NPHP5 complexes from HEK293 lysate (50 mM HEPES pH 7.4, 250 mM NaCl, 5 mM EDTA, 0.1% NP-40) on anti-Flag agarose, 2 h at 4°C, eluted with Flag peptide, gel slices analysed by LC-MS/MS

USP9X/FAM, endogenous (from UniProt Q93008 1-2554) (enzyme)
binding: binds

These are yes or no findings as the source states them, for the method shown. Binding seen in cells or lysates may run through a third protein. These calls come from enrichment with a bait or labelling near it, and not all partners need be listed. Tags and fused reporters may be left off the sequences shown.
